Assay results taken from PMC11530239.
These are yes or no findings as the source states them, for the method shown. Binding seen in cells or lysates may run through a third protein. A result given as binding can be weak or reduced; the word gives no strength.

Sequences of proteins named here, by UniProt entry; tags and fusion partners are left off. A change or cut given only in a name is not applied to a line headed by its entry.
UniProt Q9NPI6: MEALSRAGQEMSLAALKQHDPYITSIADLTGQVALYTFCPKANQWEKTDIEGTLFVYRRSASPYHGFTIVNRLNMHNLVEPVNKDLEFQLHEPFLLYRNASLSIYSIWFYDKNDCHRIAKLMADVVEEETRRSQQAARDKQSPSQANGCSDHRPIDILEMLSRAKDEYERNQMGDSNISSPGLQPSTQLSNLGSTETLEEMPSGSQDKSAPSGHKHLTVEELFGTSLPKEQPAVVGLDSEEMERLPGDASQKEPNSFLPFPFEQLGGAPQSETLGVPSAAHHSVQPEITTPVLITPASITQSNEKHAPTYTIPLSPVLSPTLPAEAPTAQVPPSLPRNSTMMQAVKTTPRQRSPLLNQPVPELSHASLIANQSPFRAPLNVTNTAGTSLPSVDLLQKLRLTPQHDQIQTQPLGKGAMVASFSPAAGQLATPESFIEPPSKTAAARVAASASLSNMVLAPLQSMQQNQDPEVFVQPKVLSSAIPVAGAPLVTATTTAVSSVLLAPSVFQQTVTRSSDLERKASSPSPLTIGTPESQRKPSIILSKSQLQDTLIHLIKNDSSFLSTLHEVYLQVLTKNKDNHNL
UniProt Q9NPJ4: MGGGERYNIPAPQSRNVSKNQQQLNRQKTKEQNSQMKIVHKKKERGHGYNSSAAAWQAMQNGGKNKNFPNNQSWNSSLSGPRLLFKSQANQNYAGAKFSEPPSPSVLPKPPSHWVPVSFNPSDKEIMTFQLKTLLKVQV
UniProt Q12796: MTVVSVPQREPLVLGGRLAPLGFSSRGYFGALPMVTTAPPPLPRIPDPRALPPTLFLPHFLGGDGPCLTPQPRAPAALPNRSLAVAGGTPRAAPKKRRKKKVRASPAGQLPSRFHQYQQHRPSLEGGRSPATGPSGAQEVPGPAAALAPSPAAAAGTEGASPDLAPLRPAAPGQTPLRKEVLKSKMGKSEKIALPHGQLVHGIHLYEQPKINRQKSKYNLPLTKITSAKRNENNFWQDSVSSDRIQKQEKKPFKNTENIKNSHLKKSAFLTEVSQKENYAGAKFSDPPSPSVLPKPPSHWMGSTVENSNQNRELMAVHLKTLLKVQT

target: GFP-tagged DCP1a EVH1 domain (human) (UniProt Q9NPI6); assay: co-IP; GFP-tagged DCP1a (full-length or fragments) overexpressed in DCP1a/b-knockout HEK-293T cells; immunoprecipitated with anti-GFP antibodies in the presence of RNase A; western blot

binding, binds:
V5-tagged PNRC2 (from UniProt Q9NPJ4 1-139), DCP2 (as co-precipitated with GFP-DCP1a constructs) (from UniProt Q8IU60 1-420) (enzyme), HA-tagged PNRC1 (from UniProt Q12796 1-327)
